Source: PubChem BioAssay AID1671190 (National Center for Advancing Translational Sciences (NCATS), 2021)
In all, about 580,000 compounds went through this assay and about 6,100 (1.1%) were called active. The inconclusive results got no clear call from the source; some entries with a clear call stand among them for comparison. Calls follow the shape of the dose curve; as a rule, active = well fitted inhibition curve with a large enough effect; inconclusive = small, poorly fitted or top-dose-only effect, or another doubt; inactive = no such curve, though single readings can be large or run the other way. Potencies of inconclusive entries are doubtful fits and often do not repeat.
Potency is read from the fitted curve at half-maximal effect.

Amino acid sequences for entries named in this document (tags omitted). A change or cut given only in a name is not applied to a line headed by its entry.
UniProt P18054: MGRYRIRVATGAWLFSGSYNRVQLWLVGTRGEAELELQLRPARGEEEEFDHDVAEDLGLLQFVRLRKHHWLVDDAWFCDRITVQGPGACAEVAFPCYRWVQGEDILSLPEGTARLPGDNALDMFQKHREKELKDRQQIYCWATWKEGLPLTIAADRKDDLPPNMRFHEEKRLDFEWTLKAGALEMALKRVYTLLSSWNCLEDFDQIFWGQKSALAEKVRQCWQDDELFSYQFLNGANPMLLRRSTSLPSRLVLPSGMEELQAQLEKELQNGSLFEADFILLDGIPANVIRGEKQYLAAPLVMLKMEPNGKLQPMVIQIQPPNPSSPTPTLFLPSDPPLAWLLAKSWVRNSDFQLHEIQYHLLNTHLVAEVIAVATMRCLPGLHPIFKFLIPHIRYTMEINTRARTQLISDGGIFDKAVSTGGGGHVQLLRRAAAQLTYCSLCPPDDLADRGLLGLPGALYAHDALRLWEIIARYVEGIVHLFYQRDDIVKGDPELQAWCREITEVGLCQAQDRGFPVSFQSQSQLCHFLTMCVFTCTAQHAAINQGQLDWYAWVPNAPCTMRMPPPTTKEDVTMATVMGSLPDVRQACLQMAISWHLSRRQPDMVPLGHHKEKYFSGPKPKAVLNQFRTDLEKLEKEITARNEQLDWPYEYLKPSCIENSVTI

Each compound was assayed against Polyunsaturated fatty acid lipoxygenase ALOX12 (Homo sapiens) (UniProt P18054) (assay: Primary qHTS assay for inhibitors of human arachidonate 12S-lipoxygenase (ALOX12): Round 2). Conditions: purified 12hLO, xylenol orange hydroperoxide absorbance; series mostly up to 108 µM.
Method in brief: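 Purified human 12hLO (150 nM final) in 25 mM Hepes, 0.01% Triton X-100, pH 7.0 was preincubated 15 min at room temperature with compound. Then 40 uM arachidonic acid was added, 30 min. Hydroperoxide was read by Fe-XO absorbance ratio 573/405 nm.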
For `CCCCCCCCCCCCCCCCCCNc1ccn(C2OC(COP(=O)(O)OCC3OC(n4cc(F)c(=O)[nH]c4=O)CC3O)C(O)C2O)c(=O)n1` (centres undefined), the Potency was inconclusive: 35.5 µM [inhibitor, partial curve, poor fit]. With `CCCCNc1c(-c2ccc(OC)c(SC3CCCCC3)c2)nc2ccc(Cl)cn12` the Potency was inconclusive: 17.8 µM [inhibitor, full curve, poor fit]. `COc1ccc(OC)c(CN2CCC(C(=O)N3CCN(c4ccccc4F)CC3)CC2)c1` was tested, and the Potency was inconclusive: 44.7 µM [inhibitor, partial curve, poor fit]. In the case of `CCN(CC)CC(O)c1ccc2ccc3ccc(O)cc3c2c1` (centres undefined), the Potency is reported as inconclusive: 63.1 µM [inhibitor, partial curve, poor fit]. With `COc1ccccc1-c1nc(C(=O)NC(C)C)n2ccncc12` the Potency was “inactive”. For `Cc1noc(C)c1S(=O)(=O)Nc1ccc(C(=O)N2CCc3ccccc3C2)cc1`, the Potency was inconclusive: 35.5 µM [inhibitor, single point]. In the case of `CC(C)OCCCNC(=O)c1ccc(Cn2ccn3nc4c(c3c2=O)CCCC4)cc1`, the Potency is reported as inconclusive: 25.1 µM [inhibitor, full curve]. In the case of `CN(C)/N=C/C=C1\CCC/C(=C/c2cccs2)C1=O`, the Potency is reported as “inactive”. `COCCCNCC(=O)Nc1ccc(OC(F)(F)F)cc1` was tested, and the Potency was inconclusive: 5.01 µM [inhibitor, full curve, poor fit]. With `CCS(=O)(=O)N1Cc2ccccc2CC1C(=O)Nc1ccc(NC(C)=O)cc1` (centres undefined) the Potency was inconclusive: 20 µM [inhibitor, full curve, poor fit]. `CCO[C@H]1OC(C(=O)N2CCN(Cc3ccc4c(c3)OCO4)CC2)=C[C@@H](C)[C@@H]1CCCO` was tested, and the Potency was inconclusive: 31.6 µM [inhibitor, partial curve, poor fit]. `O=C(N[C@H](Cc1ccccc1)C(=O)N1CCCN(Cc2cccs2)CC1)[C@H]1O[C@@H](n2ccc(=O)[nH]c2=O)[C@H](O)[C@@H]1O` was tested, and the Potency was “inactive”. For `CCCC[C@@H]1CNC(=S)N1CCC12CC3CC(CC(C3)C1)C2`, the Potency was active: 35.5 µM. For `COc1ccc(-c2nc(CS(=O)CC(=O)N3CCN(C)CC3)c(C)o2)cc1OC` (centres undefined), the Potency was inconclusive: 50.1 µM [inhibitor, partial curve, poor fit]. In the case of `CC(C)Nc1nc(NC(N)=S)nc(NC(C)(C)C)n1`, the Potency is reported as active: 44.7 µM. For `CC1(C)CC(NC(=O)c2cc3cc(Br)ccc3oc2=O)CC(C)(C)N1`, the Potency was inconclusive: 79.4 µM [inhibitor, single point]. In the case of `Brc1ccc(OCCCCCN2CCOCC2)cc1`, the Potency is reported as inconclusive: 1.12 µM [inhibitor, full curve, poor fit]. With `O=C1C[C@@H]2CCN3C(=O)CCC[C@@H]([C@H]23)[C@@H]1Cc1ccccc1` the Potency was inconclusive: 4.47 µM [inhibitor, full curve, poor fit]. With `O=[N+]([O-])c1ccc(Sc2nc3ccccc3[nH]2)c(Cl)c1` the Potency was inconclusive: 50.1 µM [inhibitor, single point]. `Cc1ccsc1CN(CC1CCCO1)C(=O)COc1cc(C)c(Cl)c(C)c1` (centres undefined) was tested, and the Potency was “inactive”. In the case of `CN(Cc1ccccc1)C(=O)C1CCCN(Cc2cccc3ccccc23)C1` (centres undefined), the Potency is reported as inconclusive: 1.26 µM [inhibitor, full curve]. In the case of `O=C(Nc1ccccc1)c1ccc(S(=O)(=O)Nc2cccc(O)c2)cc1`, the Potency is reported as “inactive”. In the case of `Cc1nn(-c2cccc(Cl)c2)c2nc(-c3ccco3)cc(C(=O)O)c12`, the Potency is reported as active: 39.8 µM. `CCOC(=O)c1csc(NC(=O)CSc2nnnn2-c2ccc(OC)cc2)n1` was tested, and the Potency was “inactive”. In the case of `CN1CCN(CC/C=C2/c3ccccc3Sc3ccc(S(=O)(=O)N(C)C)cc32)CC1`, the Potency is reported as inconclusive: 44.7 µM [inhibitor, partial curve, poor fit]. With `CCOC(=O)C1CCN(C(=O)c2[nH]c3ccc(OC)cc3c2C)CC1` the Potency was inconclusive: 6.31 µM [inhibitor, partial curve, poor fit]. `O=C(NCc1ccccc1Cl)c1ccccc1-c1ccccc1` was tested, and the Potency was “inactive”. For `Oc1ccc(/C=C\c2cc(O)cc(O)c2)cc1`, the Potency was “inactive”. `O=C(NC(=S)N1CCOCC1)c1ccccc1Cl` was tested, and the Potency was active: 1.26 µM. With `Cc1cc(O)ccc1Nc1nc2ccccc2nc1Nc1ccc(O)cc1C` the Potency was inconclusive: 44.7 µM [inhibitor, partial curve, poor fit]. `CC1=C(C(=O)OCc2ccccc2)C(c2ccc3ccccc3c2)NC(=O)N1CCCC(=O)O` (centres undefined) was tested, and the Potency was “inactive”. For `CCn1cnc2c1c(=O)n(Cc1c(C)noc1C)c(=O)n2Cc1ccccc1`, the Potency was “inactive”. For `CCOc1ccccc1NC(=O)c1c(NCc2ccc(C)o2)sc2c1CCCCC2`, the Potency was inconclusive: 100 µM [inhibitor, partial curve, poor fit]. In the case of `COC(=O)N1CC2(Cc3ccccc3N(C(C)=O)C2)C1`, the Potency is reported as “inactive”. For `COC(=O)Cc1c(C)c2ccc(OCc3ccc(F)cc3)cc2oc1=O`, the Potency was inconclusive: 35.5 µM [inhibitor, partial curve, poor fit]. With `CC1CCN(CC(O)COc2ccc(C(=O)c3ccccc3)cc2)CC1` (centres undefined) the Potency was inconclusive: 39.8 µM [inhibitor, partial curve, poor fit]. With `Fc1ccc(CN2CCN(c3ncccn3)CC2)c(F)c1` the Potency was inconclusive: 2.51 µM [inhibitor, full curve, poor fit]. For `Oc1ccccc1/C=N/Nc1ccccc1`, the Potency was active: 31.6 µM. With `CN(CC(=O)NCc1ccco1)C(=O)c1ccc(S(=O)(=O)Nc2ccccc2)cc1` the Potency was “inactive”. In the case of `O=C(COC(=O)c1cn(-c2ccccc2)nc1-c1ccccc1)c1cccc([N+](=O)[O-])c1`, the Potency is reported as inconclusive: 56.2 µM [inhibitor, partial curve, poor fit]. For `COc1ccccc1CNc1ncnc2ccc(-c3cccc(NS(C)(=O)=O)c3)cc12`, the Potency was “inactive”. In the case of `COc1cccc(CN2CC(C(=O)NCCCCc3ccccn3)CCC2=O)c1` (centres undefined), the Potency is reported as “inactive”. With `CC1CN=C(c2cc(Cl)c(N)c(Cl)c2)c2c3ccccc3nn21` (centres undefined) the Potency was inconclusive: 44.7 µM [inhibitor, partial curve, poor fit]. With `COc1ccc(-c2cc(C(=O)NC3CCN(C(C)C)CC3)c3ccccc3n2)cc1OC` the Potency was “inactive”.
